The target in experiment [1] is T1, Endogenous SIRT2 (human (endogenous in SH-SY5Y)) (UniProt Q8IXJ6).
T1 sequence: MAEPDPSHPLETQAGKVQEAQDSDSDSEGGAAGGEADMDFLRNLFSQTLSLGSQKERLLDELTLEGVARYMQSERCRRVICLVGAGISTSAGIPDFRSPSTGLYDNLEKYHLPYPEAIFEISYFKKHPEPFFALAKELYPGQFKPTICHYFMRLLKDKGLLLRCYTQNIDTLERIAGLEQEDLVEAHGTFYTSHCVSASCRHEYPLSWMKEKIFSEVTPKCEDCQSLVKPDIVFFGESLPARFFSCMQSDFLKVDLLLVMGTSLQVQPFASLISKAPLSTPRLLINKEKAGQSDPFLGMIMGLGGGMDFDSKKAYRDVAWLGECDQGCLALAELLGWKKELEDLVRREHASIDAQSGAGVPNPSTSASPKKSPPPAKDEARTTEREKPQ
Description: co-IP; endogenous SIRT2 immunoprecipitated from SH-SY5Y cells treated with or without 100 μM 6-OHDA for 4 h; GSK3β detected by Western blot. A general note: Immunoblotting shows a protein as a band on a membrane.

Chains of the proteins cited; added tags and fusions are not shown.
UniProt P49841: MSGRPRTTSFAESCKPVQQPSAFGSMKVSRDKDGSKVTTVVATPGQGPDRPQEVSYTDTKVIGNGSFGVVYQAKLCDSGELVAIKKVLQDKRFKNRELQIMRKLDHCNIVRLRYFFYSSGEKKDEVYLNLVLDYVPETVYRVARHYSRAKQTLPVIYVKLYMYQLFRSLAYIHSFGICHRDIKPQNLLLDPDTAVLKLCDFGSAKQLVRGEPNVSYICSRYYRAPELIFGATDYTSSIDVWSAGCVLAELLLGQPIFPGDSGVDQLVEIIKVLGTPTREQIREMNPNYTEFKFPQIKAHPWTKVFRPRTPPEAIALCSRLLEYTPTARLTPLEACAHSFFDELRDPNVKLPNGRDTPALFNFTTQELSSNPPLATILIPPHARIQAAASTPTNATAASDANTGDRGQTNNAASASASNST

The next experiment concerns the target T2, Flag-tagged SIRT2 (UniProt Q8IXJ6).
T2 sequence: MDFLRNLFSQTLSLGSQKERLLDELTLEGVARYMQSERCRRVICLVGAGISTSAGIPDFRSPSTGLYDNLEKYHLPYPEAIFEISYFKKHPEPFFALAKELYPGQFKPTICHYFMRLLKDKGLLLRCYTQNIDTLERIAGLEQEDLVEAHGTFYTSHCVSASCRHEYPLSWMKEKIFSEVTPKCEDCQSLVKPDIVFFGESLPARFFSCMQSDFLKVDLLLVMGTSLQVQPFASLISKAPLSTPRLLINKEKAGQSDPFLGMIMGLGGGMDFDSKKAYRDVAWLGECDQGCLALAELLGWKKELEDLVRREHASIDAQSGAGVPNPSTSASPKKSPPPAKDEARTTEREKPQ
Description: co-IP; HEK293 cells expressing Flag-tagged SIRT2 or HA-tagged GSK3β; lysis in 50 mM Tris-HCl pH 7.4, 150 mM NaCl, 1% NP-40; HA or Flag antibody overnight at 4°C, Protein A/G Sepharose beads; anti-GST and anti-Myc antibodies as IgG controls.

The record followed here is paper PMC6492038.

Results are given in words; binding and its absence hold for the method and conditions named. Binding seen in cells or lysates may run through a third protein. Some binding calls cover weakened binding; strength is not graded here. For some assays here: Sequences can lack the tags named with a protein.

Consider “Endogenous GSK3β (from UniProt P49841 1-420) (enzyme)”, for which the binding result in experiment [1] was “binds”.

As for “HA-tagged GSK3β (from UniProt P49841 1-420) (enzyme)”, the binding result with Flag-tagged SIRT2 is recorded as “binds”.
